Experimental data taken from patent publication US20230146455A1 (Yuyu Pharma, Inc., priority 2020, published 2023).

What was measured:
Type in all cases: cell-based, human
IL-8 = assay: Example 9 Luminex, LPS hPBMCs: IL-8; settings: Bead IL-8
Protocol: (§1) Treatment Human PBMCs were pretreated with YY-101, YDE-011 and YDE-043 or reference compound; Xiidra® at various concentration (ranging from 1 nM to 100 uM) for 2 h before stimulation. An equal volume of 0.5% DMSO was used as a vehicle control. Then, the cells were treated with LPS at 5 ug/ml. The supernatants from treated cells were harvested at 24 h and placed in a 96 well for Luminex cytokine & chemokine profiling using a Luminex 200 multiplex assay (Luminex; R&D system, USA).
(§2) The main study arm with triplicate wells per group in a 24-well plate: • 1. Blank • 2. PBMC: 0.5% DMSO • 3. PBMC+LPS (5 ug/ml) • 4. PBMC+YY-101 100 uM • 5. PBMC+YY-101 10 uM • 6. PBMC+YY-101 1 uM • 7. PBMC+YY-101 0.1 uM • 8. PBMC+YY-101 0.01 uM • 9. PBMC+LPS (5 ug/ml)+Xiidra®100 uM • 10. PBMC+LPS (5 ug/ml)+Xiidra® 10 uM • 11. PBMC+LPS (5 ug/ml)+Xiidra® 1 uM • 12. PBMC+LPS (5 ug/ml)+Xiidra®0.1 uM • 13. PBMC+LPS (5 ug/ml)+Xiidra®0.01 uM • 14. PBMC+LPS (5 ug/ml)+Xiidra®0.001 uM • 15. PBMC+LPS (5 ug/ml)+YY-101 100 uM • 16. PBMC+LPS (5 ug/ml)+YY-101 10 uM • 17. PBMC+LPS (5 ug/ml)+YY-101 1 uM • 18. PBMC+LPS (5 ug/ml)+YY-101 0.1 uM • 19. PBMC+LPS (5 ug/ml)+YY-101 0.01 uM • 20. PBMC+LPS (5 ug/ml)+YY-101 0.001 uM • 21. PBMC+LPS (5 ug/ml)+YDE-011 100 uM • 22. PBMC+LPS (5 ug/ml)+YDE-011 10 uM • 23. PBMC+LPS (5 ug/ml)+YDE-011 1 uM • 24. PBMC+LPS (5 ug/ml)+YDE-011 0.1 uM • 25. PBMC+LPS (5 ug/ml)+YDE-011 0.01 uM • 26. PBMC+LPS (5 ug/ml)+YDE-011 0.001 uM • 27. PBMC+LPS (5 ug/ml)+YDE-043 100 uM • 28. PBMC+LPS (5 ug/ml)+YDE-043 10 uM • 29. PBMC+LPS (5 ug/ml)+YDE-043 1 uM • 30. PBMC+LPS (5 ug/ml)+YDE-043 0.1 uM • 31. PBMC+LPS (5 ug/ml)+YDE-043 0.01 uM • 32. PBMC+LPS (5 ug/ml)+YDE-043 0.001 uM
(§3) Multiplex assay was used to measure 30 cytokines and chemokines. The 1:2, 1:10 and 1:200 diluted cell supernatant and serial dilution of the standard were dispensed into a 96 well plate at 50 ul/well. Then, the pre-mixed cocktail of antibody-coated magnetic beads was dispensed at 50 ul/well and incubated at room temperature for 2 h in a horizontal orbital microplate shaker at 800±500 rpm. The beads were washed using a magnetic device to prevent loss. The biotin-antibody was dispensed in 50 ul of each well and incubated at room temperature for 1 h in a shaker at 800±500 rpm. After washing, streptavidin-PE was added at 50 ul/well and incubated at room temperature for 30 min in a shaker under the same conditions. Finally, after washing, wash buffer (100 ul/well) was added to the plate and incubated in a shaker for 2 min. The Luminex™ 200 setting were set according to the manufacturer's protocol. The data was calculated with a standard five-parameter logistic nonlinear regression analysis of the data (xPonent software 4.2, USA). The levels of cytokine/chemokine are normalized to the live cell counts (1×10^5 cells/mL) and presented as concentrations per mL (pg/mL or ng/mL).

CCL2/JE/MCP-1 = assay: Example 9 Luminex, LPS hPBMCs: CCL2/JE/MCP-1; settings: Bead CCL2/JE/MCP-1
Protocol: as §1, §2, §3

IL-1 alpha = assay: Example 9 Luminex, LPS hPBMCs: IL-1 alpha; settings: Bead IL-1 alpha, replicates and Mean
Protocol: as §1, §2, §3

[1] = PBMC + LPS(5 ug/ml) + test article 0.001 uM, Mean
[2] = PBMC + LPS(5 ug/ml) + test article 0.001 uM, single replicates (1st, 2nd, 3rd)
[3] = PBMC + LPS(5 ug/ml) + test article 0.01 uM, Mean
[4] = PBMC + LPS(5 ug/ml) + test article 0.01 uM, single replicates (1st, 2nd, 3rd)
[5] = PBMC + LPS(5 ug/ml) + test article 0.1 uM, Mean
[6] = PBMC + LPS(5 ug/ml) + test article 0.1 uM, single replicates (1st, 2nd, 3rd)
[7] = PBMC + LPS(5 ug/ml) + test article 1 uM, Mean
[8] = PBMC + LPS(5 ug/ml) + test article 1 uM, single replicates (1st, 2nd, 3rd)
[9] = PBMC + LPS(5 ug/ml) + test article 10 uM, Mean
[10] = PBMC + LPS(5 ug/ml) + test article 10 uM, single replicates (1st, 2nd, 3rd)
[11] = PBMC + LPS(5 ug/ml) + test article 100 uM, Mean
[12] = PBMC + LPS(5 ug/ml) + test article 100 uM, single replicates (1st, 2nd, 3rd)
[13] = PBMC + LPS(5 ug/ml) + test article 0.001 uM, individual replicates
[14] = PBMC + LPS(5 ug/ml) + test article 0.01 uM, individual replicates
[15] = PBMC + LPS(5 ug/ml) + test article 0.1 uM, individual replicates
[16] = PBMC + LPS(5 ug/ml) + test article 1 uM, individual replicates
[17] = PBMC + LPS(5 ug/ml) + test article 10 uM, individual replicates
[18] = PBMC + LPS(5 ug/ml) + test article 100 uM, individual replicates

| Structure (SMILES) | MFI (IL-8; [1]) | MFI (IL-8; [2]) | MFI (IL-8; [3]) | MFI (IL-8; [4]) | MFI (IL-8; [5]) | MFI (IL-8; [6]) | MFI (IL-8; [7]) | MFI (IL-8; [8]) | MFI (IL-8; [9]) | MFI (IL-8; [10]) | MFI (IL-8; [11]) | MFI (IL-8; [12]) | MFI (CCL2/JE/MCP-1; [1]) | MFI (CCL2/JE/MCP-1; [13]) | MFI (CCL2/JE/MCP-1; [3]) | MFI (CCL2/JE/MCP-1; [14]) | MFI (CCL2/JE/MCP-1; [5]) | MFI (CCL2/JE/MCP-1; [15]) | MFI (CCL2/JE/MCP-1; [7]) | MFI (CCL2/JE/MCP-1; [16]) | other results |
| --- | --- | --- | --- | --- | --- | --- | --- | --- | --- | --- | --- | --- | --- | --- | --- | --- | --- | --- | --- | --- | --- |
| CC(C)C[C@H](NC(=O)CNC(=O)[C@H](CC(C)C)NC(=O)[C@H](CCC(N)=O)NC(=O)CNC(=O)[C@@H]1C[C@@H](O)CN1)C(=O)N[C@@H](C)C(=O)NCC(=O)N1CCC[C@H]1C(=O)N[C@@H](CCCCN)C(=O)O [YDE-011] (H-[Hyp]GQLGLAGPK-OH) | 868.8 | 861.5 and 838.5 and 906.5 | 923.5 | 964.0 and 900.5 and 906.0 | 858.8 | 852.5 and 870.5 and 853.5 | 851.0 | 872.0 and 875.5 and 805.5 | 834.0 | 851.0 and 841.5 and 809.5 | 864.3 | 918.5 and 881.5 and 793.0 | 6316.7 | 6216.5 and 6415.5 and 6318.0 | 6695.0 | 6375.0 and 7050.0 and 6660.0 | 5603.7 | 5566.0 and 5817.0 and 5428.0 | 5970.2 | 5965.5 and 6315.0 and 5630.0 | MFI (CCL2/JE/MCP-1; [9]): 5002.5; MFI (CCL2/JE/MCP-1; [17]): 4743.0 and 5215.5 and 5049.0; MFI (CCL2/JE/MCP-1; [11]): 321.3; MFI (CCL2/JE/MCP-1; [18]): 262.0 and 360.0 and 342.0; MFI (IL-1 alpha; PBMC + LPS(5 ug/ml) + YDE011 0.001 uM): 383.0 and 382.0 and 416.5 and 393.8; MFI (IL-1 alpha; PBMC + LPS(5 ug/ml) + YDE011 0.01 uM): 414.0 and 444.5 and 416.8 and 392.0; MFI (IL-1 alpha; PBMC + LPS(5 ug/ml) + YDE011 0.1 uM): 378.0 and 352.0 and 398.0 and 376.0; MFI (IL-1 alpha; PBMC + LPS(5 ug/ml) + YDE011 1 uM): 400.5 and 363.0 and 396.0 and 386.5; MFI (IL-1 alpha; PBMC + LPS(5 ug/ml) + YDE011 10 uM): 410.0 and 372.0 and 396.0 and 392.7; MFI (IL-1 alpha; PBMC + LPS(5 ug/ml) + YDE011 100 uM): 532.0 and 472.0 and 518.0 and 507.3 |
| CC(C)C[C@H](NC(=O)[C@H](CCC(N)=O)NC(=O)CNC(=O)[C@@H]1C[C@@H](O)CN1)C(=O)NCC(=O)O [YDE-043] (H-[Hyp]GQLG-OH; N-terminus and C-terminus assumed) | 915.5 | 841.0 and 932.5 and 973.0 | 921.8 | 928.5 and 897.5 and 939.5 | 886.8 | 912.0 and 822.0 and 926.5 | 877.3 | 912.5 and 765.5 and 954.0 | 971.5 | 960.5 and 1141.5 and 812.5 | 847.0 | 895.5 and 798.5 | 7229.8 | 7127.0 and 7646.5 and 6916.0 | 6891.3 | 6942.0 and 6650.0 and 7082.0 | 6479.0 | 7234.0 and 5852.5 and 6350.5 | 7287.0 | 7486.0 and 7253.0 and 7122.0 | MFI (CCL2/JE/MCP-1; [9]): 5982.2; MFI (CCL2/JE/MCP-1; [17]): 6348.5 and 5845.0 and 5753.0; MFI (CCL2/JE/MCP-1; [11]): 319.5; MFI (CCL2/JE/MCP-1; [18]): 275.0 and 364.0; MFI (IL-1 alpha; PBMC + LPS(5 ug/ml) + YDE043 0.001 uM): 387.0 and 2522.0 and 412.0 and 1107.0; MFI (IL-1 alpha; PBMC + LPS(5 ug/ml) + YDE043 0.01 uM): 405.0 and 391.5 and 429.0 and 408.5; MFI (IL-1 alpha; PBMC + LPS(5 ug/ml) + YDE043 0.1 uM): 417.0 and 373.5 and 445.5 and 412.0; MFI (IL-1 alpha; PBMC + LPS(5 ug/ml) + YDE043 1 uM): 394.5 and 378.0 and 386.5 and 386.3; MFI (IL-1 alpha; PBMC + LPS(5 ug/ml) + YDE043 10 uM): 411.5 and 391.0 and 403.0 and 401.8; MFI (IL-1 alpha; PBMC + LPS(5 ug/ml) + YDE043 100 uM): 543.0 and 488.5 and 515.8 |

Values joined by “and” are separate entries in the source; they are usually repeats but may differ in a detail not shown here. Equal entries are not always repeated. Where a SMILES comes first, the peptide text is derived from it. [ ]: non-standard residue; d: D form. Hyp = O=C(O)[C@@H]1C[C@@H](O)CN1
